Measured values from patent US20230240994A1, “MEDICAMENT-CONTAINING HOLLOW PARTICLE” (Sumitomo Pharma Co., Ltd., priority 2012, published 2023).

Test: Particle size distribution by laser diffraction particle size analyzer (volume basis)
Type: physicochemical
Details: starting material as used (medicament, polymer, other additive, mixed powder)
Experimental: In the present invention, the “average particle size” means cumulative 50% particle size D50 in the volume based measurement of powder particles. Such average particle size is measured by a laser diffraction particle size analyzer (e.g., Particle Viewer manufactured by POWREX CORPORATION, or SALD-3000J manufactured by Shimadzu Corporation, or HELOS&RODOS manufactured by Sympatec GmbH) by volume basis.
The particle size distribution of medicament, polymer, other additive, a mixed powder of the medicament and other additive, and the obtained medicament-containing particle was measured by a laser diffraction particle size analyzer (manufactured by POWREX CORPORATION, Particle Viewer) or laser diffraction particle size analyzer (manufactured by Shimadzu Corporation, SAID-3000J) by volume basis.

CN(C)C(=N)NC(=N)N.Cl [Compound C, 1,1-dimethylbiguanide monohydrochloride]
particle size distribution D10: 1.0 μm
particle size distribution D50: 3.2 μm
particle size distribution D90: 5.2 μm
